According to the supplement of paper PMC8728848:
The list shows a part of the results.

What was measured:
Assay in all cases: glycan array binding signal (z-score within array); higher = stronger binding
Settings in all cases: glycan notation: IUPAC condensed, linker removed
[1] = biological target: Fuc(a1-3)[Gal(b1-4)]GlcNAc(b1-3)Gal(b1-4)[Fuc(a1-3)]GlcNAc
Outline: (§1)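 Arrays were curated from the Consortium for Functional Glycomics database, 3228 in total, and kept only where the protein sequence was available. Binding is expressed as a within-array Z-score. This score was averaged across arrays of the same protein sequence at different concentrations or buffers and across linkers, and negative values can be read as non-binding.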

[2] = biological target: Fuc(a1-3)[Gal(b1-4)]GlcNAc(b1-3)Gal(b1-4)[Fuc(a1-3)]GlcNAc(b1-3)Gal(b1-4)[Fuc(a1-3)]GlcNAc
Outline: as §1

[3] = biological target: Fuc(a1-3)[Gal(b1-4)]GlcNAc(b1-3)GalNAc
Outline: as §1

[4] = biological target: Fuc(a1-3)[Gal(b1-4)]GlcNAc(b1-6)GalNAc
Outline: as §1

[5] = biological target: Fuc(a1-3)[Gal(b1-4)]GlcNAc(b1-6)[Gal(b1-3)GlcNAc(b1-3)]Gal(b1-4)Glc
Outline: as §1

[6] = biological target: Fuc(a1-3)[Gal(b1-4)]GlcNAc6S
Outline: as §1

[7] = biological target: Fuc(a1-3)[Gal3S(b1-4)]Glc
Outline: as §1

[8] = biological target: Fuc(a1-3)[Gal3S(b1-4)]GlcNAc
Outline: as §1

[9] = biological target: Fuc(a1-3)[Gal3S(b1-4)]GlcNAc6S
Outline: as §1

[10] = biological target: Fuc(a1-3)[GalNAc(b1-4)]GlcNAc
Outline: as §1

[11] = biological target: Fuc(a1-3)[GalNAc(b1-4)]GlcNAc6S
Outline: as §1

[12] = biological target: Fuc(a1-4)GlcNAc
Outline: as §1

[13] = biological target: Fuc(b1-3)GlcNAc
Outline: as §1

[14] = biological target: Gal(a1-2)Gal
Outline: as §1

[15] = biological target: Gal(a1-3)Gal
Outline: as §1

[16] = biological target: Gal(a1-3)Gal(b1-3)GlcNAc
Outline: as §1

[17] = biological target: Gal(a1-3)Gal(b1-3)GlcNAc(b1-2)Man
Outline: as §1

[18] = biological target: Gal(a1-3)Gal(b1-3)GlcNAc(b1-2)Man(a1-3)[Gal(a1-3)Gal(b1-3)GlcNAc(b1-2)Man(a1-6)]Man(b1-4)GlcNAc(b1-4)GlcNAc
Outline: as §1

[19] = biological target: Gal(a1-3)Gal(b1-3)GlcNAc(b1-3)GalNAc
Outline: as §1

[20] = biological target: Gal(a1-3)Gal(b1-3)GlcNAc(b1-6)GalNAc
Outline: as §1

[21] = biological target: Gal(a1-3)Gal(b1-3)[Fuc(a1-4)]GlcNAc(b1-2)Man(a1-3)[Gal(a1-3)Gal(b1-3)[Fuc(a1-4)]GlcNAc(b1-2)Man(a1-6)]Man(b1-4)GlcNAc(b1-4)GlcNAc
Outline: as §1

[22] = biological target: Gal(a1-3)Gal(b1-4)Glc
Outline: as §1

[23] = biological target: Gal(a1-3)Gal(b1-4)GlcNAc
Outline: as §1

[24] = biological target: Gal(a1-3)Gal(b1-4)GlcNAc(b1-2)Man
Outline: as §1

[25] = biological target: Gal(a1-3)Gal(b1-4)GlcNAc(b1-2)Man(a1-3)[Gal(a1-3)Gal(b1-4)GlcNAc(b1-2)Man(a1-6)]Man(b1-4)GlcNAc(b1-4)GlcNAc
Outline: as §1

[26] = biological target: Gal(a1-3)Gal(b1-4)GlcNAc(b1-3)GalNAc
Outline: as §1

[27] = biological target: Gal(a1-3)Gal(b1-4)GlcNAc(b1-6)GalNAc
Outline: as §1

[28] = biological target: Gal(a1-3)Gal(b1-4)[Fuc(a1-3)]GlcNAc
Outline: as §1

[29] = biological target: Gal(a1-3)Gal(b1-4)[Fuc(a1-3)]GlcNAc(b1-2)Man(a1-3)[Gal(a1-3)Gal(b1-4)[Fuc(a1-3)]GlcNAc(b1-2)Man(a1-6)]Man(b1-4)GlcNAc(b1-4)GlcNAc
Outline: as §1

[30] = biological target: Gal(a1-3)GalNAc
Outline: as §1

[31] = biological target: Gal(a1-3)[Gal(a1-4)]Gal(b1-4)GlcNAc
Outline: as §1

[32] = biological target: Gal(a1-4)Gal(b1-3)GlcNAc(b1-2)Man(a1-3)[Gal(a1-4)Gal(b1-3)GlcNAc(b1-2)Man(a1-6)]Man(b1-4)GlcNAc(b1-4)GlcNAc
Outline: as §1

[33] = biological target: Gal(a1-4)Gal(b1-4)Glc
Outline: as §1

[34] = biological target: Gal(a1-4)Gal(b1-4)GlcNAc
Outline: as §1

[35] = biological target: Gal(a1-4)Gal(b1-4)GlcNAc(b1-2)Man(a1-3)[Gal(a1-4)Gal(b1-4)GlcNAc(b1-2)Man(a1-6)]Man(b1-4)GlcNAc(b1-4)GlcNAc
Outline: as §1

[36] = biological target: Gal(a1-4)Gal(b1-4)GlcNAc(b1-3)Gal(b1-4)Glc
Outline: as §1

[37] = biological target: Gal(a1-4)GlcNAc
Outline: as §1

[38] = biological target: Gal(a1-6)Glc
Outline: as §1

B1: B3GalT2 (Rattus norvegicus) (protein)
chain: LMLQWRRRHCCFAKMSWNAKRSLFRTHLMGVLSLVFLFAMFLFFNHHDWLPGRPGFKENPVTYTFRGFRSTKTETNQSSLRNIWKEVVPQTLRPQTATNSNNTELSPQGVTGLENTLSANGSIYNEKGTGHPNSYHFKYIINEPEKCQEKSPFLILLIAAEPGQIEARRAIRQTWGNETLAPGIQITRIFLLGISIKLNGYLQHAIQEESIQYHDIIQQEYLDTYYNLTIKTLMGMNWVATYCPHTPYVMKTDSDMFVNTEYLIHKLLKPDLPPRHNYFTGYLMRGYAPNRNKDSKWYMPPDLYPSERYPVFCSGTGYVFSGDLAEKIFKVSLGIRRLHLEDVYVGICLAKLRVDPVPPPNEFVFNHWRVSYSSCKYSHLITSHQFQPSELIKYWNHLQQNKHNACVNAAKEKAGRYRHRKLH
B1 was tested, and the “glycan array binding signal (z-score)” value [1] was 0.853, the “glycan array binding signal (z-score)” value [2] was -0.328 and the “glycan array binding signal (z-score)” value [3] was 0.028. For the same binder, the “glycan array binding signal (z-score)” value [4] was -0.729, the “glycan array binding signal (z-score)” value [5] was -0.878 and the “glycan array binding signal (z-score)” value [6] was 1.85. For the same binder, the “glycan array binding signal (z-score)” value [7] was 0.499, the “glycan array binding signal (z-score)” value [8] was 0.537 and the “glycan array binding signal (z-score)” value [9] was 0.714. The “glycan array binding signal (z-score)” value [10] was 0.444, the “glycan array binding signal (z-score)” value [11] was 2.41 and the “glycan array binding signal (z-score)” value [12] was -0.85. The “glycan array binding signal (z-score)” value [13] was -0.867, the “glycan array binding signal (z-score)” value [14] was -0.737 and the “glycan array binding signal (z-score)” value [15] was -0.023. The “glycan array binding signal (z-score)” value [16] was -0.848, the “glycan array binding signal (z-score)” value [17] was 0.596 and the “glycan array binding signal (z-score)” value [18] was -0.735. The “glycan array binding signal (z-score)” value [19] was -0.17, the “glycan array binding signal (z-score)” value [20] was -0.65 and the “glycan array binding signal (z-score)” value [21] was -0.703. For the same binder, the “glycan array binding signal (z-score)” value [22] was -0.756, the “glycan array binding signal (z-score)” value [23] was -0.174 and the “glycan array binding signal (z-score)” value [24] was -0.684. For the same binder, the “glycan array binding signal (z-score)” value [25] was -0.478, the “glycan array binding signal (z-score)” value [26] was 0.118 and the “glycan array binding signal (z-score)” value [27] was -0.997. The “glycan array binding signal (z-score)” value [28] was -0.643, the “glycan array binding signal (z-score)” value [29] was -1.16 and the “glycan array binding signal (z-score)” value [30] was -0.362. The “glycan array binding signal (z-score)” value [31] was 0.28, the “glycan array binding signal (z-score)” value [32] was 0.421 and the “glycan array binding signal (z-score)” value [33] was -0.43. The “glycan array binding signal (z-score)” value [34] was 0.027, the “glycan array binding signal (z-score)” value [35] was -0.558 and the “glycan array binding signal (z-score)” value [36] was -0.026. The “glycan array binding signal (z-score)” value [37] was 0.574 and the “glycan array binding signal (z-score)” value [38] was -0.596.
